Assay results from article PMC7819943, “Rice protein-binding microarrays: a tool to detect cis-acting elements near promoter regions in rice”.
This is one part of the list.

By UniProt entry, the sequences of proteins in these tests, tags left out.
UniProt Q0JBA9, entry or part of it: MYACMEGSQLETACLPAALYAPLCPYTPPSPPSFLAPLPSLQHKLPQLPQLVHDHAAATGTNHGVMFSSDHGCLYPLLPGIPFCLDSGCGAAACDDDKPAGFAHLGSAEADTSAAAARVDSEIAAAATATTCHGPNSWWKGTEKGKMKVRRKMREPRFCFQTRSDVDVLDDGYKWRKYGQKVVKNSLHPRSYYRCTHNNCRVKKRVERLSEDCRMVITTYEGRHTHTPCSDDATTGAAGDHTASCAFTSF

Molecular target: OsWRKY34 (Oryza sativa, UniProt Q0JBA9 1-250)
Experiment: protein-binding microarray (RPBM); PBS, 2% BSA, 51.3 ng/ul salmon testes DNA, 50 uM zinc acetate, 200 nM TF, 25 C, 1 h; high values mean tight binding
Details: protein: recombinant; tags: N-terminal polyhistidine and DsRed monomer fusion (pET32a); label: CyDye5-dUTP incorporated in the synthesized complementary strand; 3' TTTTT single-stranded linker to array surface; dsDNA, one strand shown
In short: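 Using Ni–NTA, transcription factors fused N-terminally to polyhistidine and DsRed were purified after expression in E. coli BL21-CodonPlus. These were incubated at 200 nM with a blocked, double-stranded custom Agilent array for 1 h at 25 °C in a buffer containing 50 µM zinc acetate, and the array was washed. The binding signal is per-feature fluorescence intensity (arbitrary units) on an Axon 4000B scanner.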

Sequence	binding signal
TATTATGTACTCCGTAGAATTTATTGTCGTCTTATGTTTGCGGAGTCACCTAGTGCAG	8360 fluorescence intensity (a.u.)
CACCATCGCCGCTCTAGCTAGCTCCCGCCGGCCGCCACCACGGAGTCACCTAGTGCAG	9800 fluorescence intensity (a.u.)
CAAATTAGATGTTATTTTGACTTTTTTTTACAATATTTGACGGAGTCACCTAGTGCAG	10600 fluorescence intensity (a.u.)
AAACATCTCCTTCGTCTTCCCTACGCGTCCACCCGAAAAACGGAGTCACCTAGTGCAG	9380 fluorescence intensity (a.u.)
GCGCCACCCACCCTACCCGCGGTCGCCGCCGCCGCGCCGGCGGAGTCACCTAGTGCAG	8700 fluorescence intensity (a.u.)
CCTTGCACCACTAGTCTCTCTTCACTCCGGCGAATCCATTCGGAGTCACCTAGTGCAG	9160 fluorescence intensity (a.u.)
ATGTTTGTTTGGTTGACTGCACTTGGTCCGACGGATGAAACGGAGTCACCTAGTGCAG	8720 fluorescence intensity (a.u.)
ACATGGGCAGTTGTGTGAATTGCTGGAGAGGACCCAAGGTCGGAGTCACCTAGTGCAG	8330 fluorescence intensity (a.u.)
TTAGCACATTTTGACCCTAATTCTTTTTCTTACCTATGTTCGGAGTCACCTAGTGCAG	8370 fluorescence intensity (a.u.)
CGGAGTCGGTCAAGCTTAACCACTATTCCTTTCCGGATTGCGGAGTCACCTAGTGCAG	61500 fluorescence intensity (a.u.)
CTCATCGTGCCTTGGACGCCAATTCTCTCTCTCTCTCTTCCGGAGTCACCTAGTGCAG	8310 fluorescence intensity (a.u.)
CTGATATTTGCAAAGTACTTTGACCGGGTCAGCTTGATCACGGAGTCACCTAGTGCAG	9020 fluorescence intensity (a.u.)
ACAATTCCTGCTAGATAACTGACTTTCGCATGTTATGCCACGGAGTCACCTAGTGCAG	8120 fluorescence intensity (a.u.)
TTCGGCTTGTCCCCAAGTGTATGACTTAAAACCTTCCGGACGGAGTCACCTAGTGCAG	8030 fluorescence intensity (a.u.)
TATATTTTCCCTCGTTACAAACTATTACTACCTCAGTTTTCGGAGTCACCTAGTGCAG	9810 fluorescence intensity (a.u.)
TCGCCGCCCTTTTGCTTCCCGCTCTCTCGCTCGCCATCGCCGGAGTCACCTAGTGCAG	10100 fluorescence intensity (a.u.)
CGCGCGCGGGGCCTTGGAAGTGTTCGATCGCGAGCGTCTCCGGAGTCACCTAGTGCAG	8090 fluorescence intensity (a.u.)
GAGGAGAGCAGAACAGAACAAGAGGAGGAGAACAAAAAAACGGAGTCACCTAGTGCAG	8230 fluorescence intensity (a.u.)
TGTATTGTTGATTGGTTTCGTGCTGCTAAAGTTTTAAAAACGGAGTCACCTAGTGCAG	8590 fluorescence intensity (a.u.)
GTGTGTGCTGTGGTGGAGAGGAGAAAGGGAGGAAGAAGAGCGGAGTCACCTAGTGCAG	8140 fluorescence intensity (a.u.)
GGGGTTTGTTTATCTCGCTGAATTGATTGTGTCACAGTATCGGAGTCACCTAGTGCAG	11400 fluorescence intensity (a.u.)

Sequence	binding signal
AGTTCGCTATCTCGCTCCAGTGTCCAAATCGCGCACAAGTCGGAGTCACCTAGTGCAG	9740 fluorescence intensity (a.u.)
GGTTATAGGGCTTGTTTGGTTCTTTACCCTACCAATTCATCGGAGTCACCTAGTGCAG	9880 fluorescence intensity (a.u.)
ATTGTCTCTGTGCATGCACTTGTGTTTGCTGCACTACGACCGGAGTCACCTAGTGCAG	11400 fluorescence intensity (a.u.)
CCTTCTTCCTCCCTCTCATCTCTCTCCATTGCTAGCTCCTCGGAGTCACCTAGTGCAG	8250 fluorescence intensity (a.u.)
ACACCGTTCTTCGCTGCCCACATCGTCGCCCGTAGTTGTTCGGAGTCACCTAGTGCAG	8120 fluorescence intensity (a.u.)
CCTGCTATTGTACCTGCTCTAAGCCAGCTATAACCATATACGGAGTCACCTAGTGCAG	8170 fluorescence intensity (a.u.)
GCCCGCTGCTATTCTCTCTCATCTTTTATCCTATTAAAATCGGAGTCACCTAGTGCAG	13200 fluorescence intensity (a.u.)
GAATTGAGTTCTTGGTGGGGCATCCTTGTAGCTTTGGGAGCGGAGTCACCTAGTGCAG	9200 fluorescence intensity (a.u.)
GTCCAGTACTCCAGTCATGTACCAACCCTTCGTCCCAAGTCGGAGTCACCTAGTGCAG	9560 fluorescence intensity (a.u.)
CGTCCTCCGGGTCACTCGTTTCCGCGCGCAAGGTGTTCGACGGAGTCACCTAGTGCAG	8300 fluorescence intensity (a.u.)
ACAATAGTCTGTGTGATAACTCTTTGCATGTCAACATACACGGAGTCACCTAGTGCAG	8280 fluorescence intensity (a.u.)
CCAGTAGCATTTCTGCTCTACCACATCCATCTATCATCGTCGGAGTCACCTAGTGCAG	9350 fluorescence intensity (a.u.)
GATCCGTCGAATTCGAGGGTAACTTTTATTTCCGCTAAAACGGAGTCACCTAGTGCAG	8900 fluorescence intensity (a.u.)
TTTTCCAAACCTCTCGTCTCTCAACTTTTTCAAACCTATCCGGAGTCACCTAGTGCAG	8180 fluorescence intensity (a.u.)
GTGGGGCTCGGGTTCCGGCCGGTGTAGGGGAGGGGAGATGCGGAGTCACCTAGTGCAG	15700 fluorescence intensity (a.u.)
CTGTCAATCTGCATATATCTGTCTCTCTTACTCACTAACACGGAGTCACCTAGTGCAG	10400 fluorescence intensity (a.u.)
TGTATCCAAAATCATTGTTTAGCCTGGTCAAACTGGTCAACGGAGTCACCTAGTGCAG	8320 fluorescence intensity (a.u.)
TCTGATTATGTGTTGCATATTTGCTTAGACGCTCATTTTCCGGAGTCACCTAGTGCAG	10400 fluorescence intensity (a.u.)
GGCTGTTCCTGTTGAGATTTGAGCCCTGCTTTGGGCTTATCGGAGTCACCTAGTGCAG	9510 fluorescence intensity (a.u.)
ATCCCTGTTCGTTTCTCACGTTTATGTGACCAGCTGTTGACGGAGTCACCTAGTGCAG	10200 fluorescence intensity (a.u.)
TGCTACCAACGGCCGGTATCAATCCATGTCATGTCTGTCACGGAGTCACCTAGTGCAG	8350 fluorescence intensity (a.u.)

Quoted from the listing:
Entry for TTAGCACATTTTGACCCTAATTCTTTTTCTTACCTATGTTCGGAGTCACCTAGTGCAG under binding signal: 8370 fluorescence intensity (a.u.)
Entry for TGCTACCAACGGCCGGTATCAATCCATGTCATGTCTGTCACGGAGTCACCTAGTGCAG under binding signal: 8350 fluorescence intensity (a.u.)
